The list shows only some results of the screen, not a fair sample: its compounds were picked by chemical class. Other doses and runs of a compound may be missing. T/C is the treated group as % of the vehicle group. For survival time, the PubChem record calls one and a half times the control and up active, and a quarter to a half above the control has no call in these data; cut-offs in other NCI protocols can differ. Schedule codes are those of the source, read here as Q, the interval in days (D) or hours (H), X, the number of doses. Some T/C values are marked as having no survivor count here; that says nothing about deaths at the dose. Brackets with × count equal records among those shown. Some entries were tested several times; the results are listed from low to high.
Test system: B6C3F1 mice, ip Sarcoma M5076, median survival T/C
Experiment: NCI In Vivo Anticancer Drug Screen. Data for tumor model Sarcoma M5076 (intraperitoneal) in B6C3F1 mice
Settings: T/C endpoint: median survival time, schedule: Q04DX004 (ip), higher T/C = longer survival
Method: The antitumor activity of compounds was measured in mice bearing transplantable tumors. Survival or tumor size were measured and the results are expressed as the measurement made in the treated group (T) divided by the measurement made in the vehicle treated control group (C). The tumor model used in this assay is Sarcoma M5076 (intraperitoneal) in B6C3F1 mice

| SMILES | T/C (dose: 0.32 mg/kg/injection, vehicle: Klucel (hydroxypropylcellulose) (HPC)) | T/C (dose: 0.63 mg/kg/injection, vehicle: Klucel (hydroxypropylcellulose) (HPC)) | T/C (dose: 1.25 mg/kg/injection, vehicle: Klucel (hydroxypropylcellulose) (HPC)) | T/C (dose: 2.5 mg/kg/injection, vehicle: Klucel (hydroxypropylcellulose) (HPC)) | T/C (dose: 5.0 mg/kg/injection, vehicle: Klucel (hydroxypropylcellulose) (HPC)) | T/C (dose: 5.0 mg/kg/injection, vehicle: saline + alcohol) | T/C (dose: 10.0 mg/kg/injection, vehicle: saline + alcohol) | T/C (dose: 20.0 mg/kg/injection, vehicle: saline + alcohol) |
| --- | --- | --- | --- | --- | --- | --- | --- | --- |
| CC1=C[C@H]2O[C@@H]3C[C@H]4OC(=O)/C=C\C=C\[C@H]([C@@H](C)O)OC[C@H](O)[C@@]5(C)O[C@@H]5C(=O)OC[C@@]2(C[C@H]1O)[C@]4(C)C31CO1 (stereo partly drawn) | 106 % of control [survivor count not shown] | 108 % of control [survivor count not shown] | 133 % of control [survivor count not shown] (2×) | 133 [survivor count not shown] and 142 % of control [survivor count not shown] | 145 % of control [survivor count not shown] |  |  |  |
| CC(O)C1/C=C/C=C/C(=O)OC2CC3OC4C5OC5(C)C(O)CC4(COC(=O)C(O)C(C)CCO1)C2(C)C31CO1 (stereo not drawn) |  |  |  |  |  | 140 % of control [survivor count not shown] | 117 % of control [survivor count not shown] | 135 % of control [survivor count not shown] |

— PubChem BioAssay AID292 (DTP/NCI, 2004)
